Results are given in words; binding and its absence hold for the method and conditions named. Binding can be weak; no strength is given.

In article PMC9126983, “Structural insights into the mechanism of archaellar rotational switching” (Nature Communications, 2022) one finds binding data, which are given here for one molecule.

In this test the target is GST-MmCheFCTD (Methanococcus maripaludis). Kind of test: ITC; as a4, in the absence of NaF and BeF2; both purified.

B1: Methanococcus maripaludis CheY (without BeF3-) (protein, UniProt Q6LYQ5 1-123)
chain: MASIVKTMIVDDSAFMRNILKRILSTTNKYVVIGEAANGADAIKMAEELQPDLISMDIVMPETDGITATKAIKEKTPEIKIVMCTSVDQEQKMIDAVNAGADGYIVKPFQAPKILEQFNKLFP
For B1, the binding result is listed as “binds weakly”.
